Assay: Sensory test of perfume raw materials in self-tanning cosmetic containing dimethylpyrazine
Details: score 1 to 5 in units of 0.5, four specialized panelists; perfume 0.1 mass % in Table 4 cosmetic with 1 mass % dimethylpyrazine

**Q.** With `CCCCCC1CCC(=O)O1` (stereo not shown) [Aldehyde C-18, gamma-nonalactone] as the compound, how does the Evaluation result read?
**A.** 4.5

**Q.** With `C=CC(C)(O)CCC=C(C)CC` (stereo not shown) [Ethyl linalool, 3,7-dimethyl-1,6-nonadien-3-ol] as the compound, how does the Evaluation result read?
**A.** 4.0

**Q.** For `CCCCCC1C(=O)CCC1CC(=O)OC` (stereo not shown) [Methyl dihydrojasmonate, methyl dihydrojasmonate], which Evaluation result is on record?
**A.** 2.0

**Q.** With `CC=CC(=O)C1C(C)=CCCC1(C)C` (stereo not drawn) [α-Damascone, 1-(2,2,6-trimethyl-2-cyclohexenyl)-2-buten-1-one] as the compound, how does the Evaluation result read?
**A.** 4.0
